Some entries share one result that the patent states for a list of compounds.
Test system: A549 cells
Test: Intratibial implantation of A549 cells and radiographic analysis
Type: in vivo, SCID mice
Details: 8 weeks, score 0-3
Excerpt: Forty, eight-week-old male SCID mice (weight 23.5 to 29.1 g, mean 27.1 g) were housed under pathogen-free conditions in accordance with the protocol approved by the Chancellor's Animal Research Committee (ARC) at the University of California, Los Angeles. There were four experimental groups in this study, and each group underwent implantation of cells in both a subcutaneous model and an intra-tibial injection. Group I animals received A549 cells alone as a control group. […] Group III received an A549 cells+spp24 (1000 μg). […] There were 10 animals in each group.

B1: spp24: recombinant His6-tagged bovine secreted phosphoprotein-24 kDa, residues 24 to 203 (SEQ ID NO:1), expressed in E. coli (protein)
chain: MHHHHHHFPVYDYDPASLKEALSASVAKVNSQSLSPYLFRAFRSSVKRVNALDEDSLTMDLEFRIQETTCRRESEADPATCDFQRGYHVPVAVCRSTVRMSAEQVQNVWVRCHWSSSSGSSSSEEMFFGDILGSSTSRNSYLLGLTPDRSRGEPLYEPSREMRRNFPLGNRRYSNPWPRARVNPGFE
modifications: N-terminal Met-His6 tag; Synthetic spp24
In the case of B1, the “radiographic score, range” value is reported as 0-2.

From patent publication US8962569B2, “Compositions comprising spp24 peptide fragments” (The Regeants of the University of California, priority 2010, dated 2015)
